Data source: PubChem BioAssay AID1259254 (NCATS, 2017)
Test: 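Finding genes that stop cells copying their DNA twice in one cycle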 (primary screen). Cells: human HCT116 colorectal cancer cells. Reagent: single siRNA against human genes. Duration: 3 days. Measured: 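Nuclei stained with Hoechst and imaged; cell-cycle phase assigned by DNA content; G2 share scaled per plate, non-targeting siRNA 0%, GMNN siRNA 100%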. Scale: G2 robust z-score and G2 cells, % of GMNN control: higher = more G2 cells, more excess DNA replication. Hit rule: 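An siRNA counts as active if its G2 robust z-score lies at least 5 MADs above the screen median; here such calls match roughly 38% of GMNN control or more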.
The whole screen tested about 59,000 reagents; below is a part drawn at random. Of all reagents, about 1,550 (2.6%) got an active call. 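G2 share is only a proxy for re-replication; each gene was hit by three separate siRNAs, and active genes were retested.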 The numbers tell different reagents against one gene apart. Not all columns of the deposit are shown. Reagent sequences are not shown. Not given: the amount of reagent.

What is on record for C1QTNF4 #1?
G2 robust z-score: 0.95; G2 cells, % of GMNN control: 9.65; Call: inactive

What is on record for C1QTNF4 #2?
G2 robust z-score: -0.377; G2 cells, % of GMNN control: 0.314; Call: inactive

For C1QTNF4 #3, what was measured?
G2 robust z-score: 1.62; G2 cells, % of GMNN control: 14.4; Call: inactive

What is on record for GCG #1?
G2 robust z-score: 2.72; G2 cells, % of GMNN control: 22.1; Call: inactive

For GCG #2, what does the deposit list?
G2 robust z-score: -0.55; G2 cells, % of GMNN control: -0.905; Call: inactive

With GCG #3, what was measured?
G2 robust z-score: 6.87; G2 cells, % of GMNN control: 51.3; Call: active

With TUB #1, what does the deposit list?
G2 robust z-score: -0.674; G2 cells, % of GMNN control: -1.78; Call: inactive

What is on record for TUB #2?
G2 robust z-score: 1.05; G2 cells, % of GMNN control: 10.4; Call: inactive

What is on record for TUB #3?
G2 robust z-score: 2.79; G2 cells, % of GMNN control: 22.6; Call: inactive

How did the screen score ZNF701 #1?
G2 robust z-score: -0.715; G2 cells, % of GMNN control: -2.06; Call: inactive

What is on record for ZNF701 #2?
G2 robust z-score: 0.208; G2 cells, % of GMNN control: 4.43; Call: inactive

What is on record for ZNF701 #3?
G2 robust z-score: 0.177; G2 cells, % of GMNN control: 4.21; Call: inactive

Ordered by “G2 robust z-score” (ascending): some entries from above.
TUB #1: G2 robust z-score = -0.674; G2 cells, % of GMNN control = -1.78; Call = inactive
GCG #3: G2 robust z-score = 6.87; G2 cells, % of GMNN control = 51.3; Call = active

The results go on:
Which result is listed for PCDHGA5 #1?
G2 robust z-score: 1.97; G2 cells, % of GMNN control: 16.8; Call: inactive

What is on record for PCDHGA5 #2?
G2 robust z-score: 0.788; G2 cells, % of GMNN control: 8.51; Call: inactive

For PCDHGA5 #3, what was measured?
G2 robust z-score: 0.85; G2 cells, % of GMNN control: 8.94; Call: inactive

With SULT1C3 #1, what does the deposit list?
G2 robust z-score: 4.96; G2 cells, % of GMNN control: 37.9; Call: inactive

What is on record for SULT1C3 #2?
G2 robust z-score: 0.712; G2 cells, % of GMNN control: 7.98; Call: inactive

What is on record for SULT1C3 #3?
G2 robust z-score: -0.809; G2 cells, % of GMNN control: -2.72; Call: inactive

With ZNF335 #1, what was measured?
G2 robust z-score: 1.21; G2 cells, % of GMNN control: 11.5; Call: inactive

How did the screen score ZNF335 #2?
G2 robust z-score: -1.53; G2 cells, % of GMNN control: -7.81; Call: inactive

What is on record for ZNF335 #3?
G2 robust z-score: 0.916; G2 cells, % of GMNN control: 9.41; Call: inactive

What is on record for PLEKHH1 #1?
G2 robust z-score: -0.614; G2 cells, % of GMNN control: -1.35; Call: inactive

What did the screen give for PLEKHH1 #2?
G2 robust z-score: 0.69; G2 cells, % of GMNN control: 7.82; Call: inactive

What is on record for PLEKHH1 #3?
G2 robust z-score: -0.532; G2 cells, % of GMNN control: -0.774; Call: inactive

For TAS2R20 #1, what was measured?
G2 robust z-score: -0.116; G2 cells, % of GMNN control: 2.15; Call: inactive

For TAS2R20 #2, how do the results read?
G2 robust z-score: -0.628; G2 cells, % of GMNN control: -1.45; Call: inactive

What did the screen give for TAS2R20 #3?
G2 robust z-score: 0.924; G2 cells, % of GMNN control: 9.47; Call: inactive

With IQGAP3 #1, how do the results read?
G2 robust z-score: 1.49; G2 cells, % of GMNN control: 13.4; Call: inactive

Which result is listed for IQGAP3 #2?
G2 robust z-score: -0.592; G2 cells, % of GMNN control: -1.2; Call: inactive

How did the screen score IQGAP3 #3?
G2 robust z-score: -0.512; G2 cells, % of GMNN control: -0.633; Call: inactive
